Test results from article PMC6943742 (Molecules, 2019).
Some peptides are written in HELM: one residue between dots, names in brackets for other building blocks, links after the first $.

Experiment: Fmoc solid-phase peptide synthesis; H-Rink-Amide ChemMatrix resin (loading 0.52 mmol/g); DIC/OxymaPure
Conditions: whole synthesis, 220 nm, scale 0.05 mmol

Going from “PEPTIDE1{[Dab].[NPhe].[Dab].[NPhe].[Dab].[NPhe].[Dab].[NPhe].[Dab].[NPhe].[Dab].[NPhe].[am]}$$$$V2.0” to “PEPTIDE1{[Dab].[NhPhe].[Dab].[NhPhe].[Dab].[NhPhe].[Dab].[NhPhe].[Dab].[NhPhe].[Dab].[NhPhe].[am]}$$$$V2.0”, the “final HPLC purity” value rises from 95.2% to 98.98%.

For “PEPTIDE1{[Orn].[NPhe].[Orn].[NPhe].[Orn].[NPhe].[Orn].[NPhe].[Orn].[NPhe].[Orn].[NPhe].[am]}$$$$V2.0”, the “final HPLC purity” value was 86.54%.
